{"source": "patent US20170087205A1", "about": "“Replacement Therapy for Natriuretic Peptide Deficiencies” (priority 2014, published 2017)", "key": {"[1]": {"test": "Safety study in healthy volunteers: pharmacodynamic parameters (plasma cGMP)", "format": "in vivo, human", "conditions": "for AUEC(0-t): mean ± SD", "text": "Cyclic guanosine monophosphate (cGMP) in the plasma samples was extracted using a protein precipitation method. cGMP and internal standard, cyclic adenosine monophosphate (cAMP), were separated using a HPLC technique and detected by an Applied Biosystems API-4000 liquid chromatography-tandem mass spectrometer (LC-MS/MS) with turbo-ion spray ionization (electrospray) in positive ion mode. Positive ions were detected in multiple reaction monitoring (MRM) mode with Precursor→Product ion pairs of 346.3→152.1 for cGMP, and 330.0→136.3 for cAMP.\nIn a safety study, the mimetic of formula IV was administered to healthy volunteers. Doses of 0.1, 0.3, 0.7 and 1.0 μg/kg of the mimetic of formula IV were administered.\nKel is the apparent terminal elimination rate constant, calculated by linear regression of the terminal linear portion of the log concentration versus the time curve. The plasma cGMP concentrations returned to baseline levels by approximately 8 hours after dosing following 0.7 μg/kg and 1.0 μg/kg of the mimetic of formula IV."}, "hNPRC (human NPRC)": {"target": "T1, hNPRC (human NPRC) (Homo sapiens, UniProt P17342)", "T1 construct": "expressed in transfected cells; host or cells: HEK cell line", "T1 sequence (P17342 27-541)": "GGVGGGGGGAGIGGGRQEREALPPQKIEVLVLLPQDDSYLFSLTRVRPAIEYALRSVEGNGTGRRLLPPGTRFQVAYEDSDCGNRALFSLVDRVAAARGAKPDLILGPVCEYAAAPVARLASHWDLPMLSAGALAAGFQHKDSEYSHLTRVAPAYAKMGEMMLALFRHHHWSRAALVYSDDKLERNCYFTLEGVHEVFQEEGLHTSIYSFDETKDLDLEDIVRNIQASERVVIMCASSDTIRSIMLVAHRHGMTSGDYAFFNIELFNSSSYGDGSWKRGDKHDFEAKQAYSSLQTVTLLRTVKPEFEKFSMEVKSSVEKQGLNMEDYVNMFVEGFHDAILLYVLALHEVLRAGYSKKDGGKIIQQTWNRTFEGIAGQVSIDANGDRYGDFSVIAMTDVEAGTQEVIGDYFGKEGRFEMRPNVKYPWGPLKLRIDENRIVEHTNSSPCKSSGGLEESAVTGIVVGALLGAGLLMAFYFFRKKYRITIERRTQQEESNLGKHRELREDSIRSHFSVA", "test": "Binding to human NPRC in HEK cell line", "conditions": "human NPRC Ki versus human NPRA Ki"}, "2K1C rats": {"system": "2K1C rats", "test": "Two-kidney, one clip (2K1C) rat model of renovascular hypertension and heart failure", "format": "in vivo"}, "corin knockout mice": {"system": "corin knockout mice", "test": "Thoracic aortic banding in conditional cardiomyocyte restricted corin knockout mice", "format": "in vivo, mouse", "conditions": "two weeks"}, "[2]": {"system": "corin knockout mice and wild-type control mice", "test": "Osmotic pump infusion in corin knockout and wild-type mice: left ventricular cGMP and protein kinase G activity", "format": "in vivo, mouse", "conditions": "corin knockout and wild-type mice, 0.0001, 0.001 or 0.01 mg/kg/min by osmotic pump, 21 days; highest at 0.01 mg/kg/min"}, "[3]": {"test": "Human clinical trial, subcutaneous formulation: half life and plasma cGMP", "format": "in vivo", "conditions": "0.3 μg/kg single subcutaneous injection"}, "[4]": {"conditions": "corin knockout mice, 0.01 mg/kg/min"}}, "note": "At least one structure is not confirmed: it was looked up by name or label, or the drawing left a doubt. Positions of bridges follow the written chain, without caps; N, C: chain ends. Non-standard residues stand in square brackets, D forms with d. Residues, ends and D or L forms follow the SMILES beside them. *: point of attachment. X1 = N=C(N)NCCC[C@H]1C(=O)N[C@@H](C(N)=O)CN1*; dNle = CCCC[C@@H](N)C(=O)O; Heptanoyl = CCCCCCC(=O)*"}
{"smiles": "CCCCCCC(=O)N[C@H]1CSSC[C@@H](C(=O)N[C@@H](Cc2ccc(O)cc2)C(=O)N2C[C@H](C(N)=O)NC(=O)[C@@H]2CCCNC(=N)N)NC(=O)[C@H](CO)NC(=O)[C@H]([C@@H](C)CC)NC(=O)[C@H](CCCNC(=N)N)NC(=O)[C@H](CC(=O)O)NC(=O)[C@@H](CCCC)NC(=O)[C@H](CCCNC(=N)N)NC(=O)CNC(=O)[C@@H](C)NC(=O)[C@H](Cc2ccccc2)NC(=O)[C@H](Cc2c[nH]cn2)NC1=O", "note": "[mimetic of formula IV] (Heptanoyl-CHF[dA]GR[dNle]DRISCY-X1; disulfide 1-12)", "values": [{"measurement": "AUEC(0-t)", "setting": "[1]; 0.1 μg/kg", "value": "5.367 ± 5.612", "unit": "ng·h/mL"}, {"measurement": "AUEC(0-t)", "setting": "[1]; 0.3 μg/kg", "value": "0.6079 ± 14.94", "unit": "ng·h/mL"}, {"measurement": "tmax median", "setting": "[1]; 0.7 μg/kg", "value": 1.00, "unit": "h"}, {"measurement": "AUEC(0-t)", "setting": "[1]; 0.7 μg/kg", "value": "10.30 ± 11.58", "unit": "ng·h/mL"}, {"measurement": "AUEC(0-t)", "setting": "[1]; 1.0 μg/kg", "value": "8.713 ± 23.32", "unit": "ng·h/mL"}, {"measurement": "time after dosing at which plasma cGMP concentrations returned to baseline levels", "setting": "[1]; following 0.7 μg/kg and 1.0 μg/kg", "value": "approximately 8 hours"}, {"measurement": "fold lower affinity for NPRC than for NPRA", "setting": "hNPRC (human NPRC)", "value": "~7", "unit": "fold"}, {"measurement": "heart weight to body weight ratio versus saline control", "setting": "2K1C rats; 2K1C rats, 0.03 mg/kg daily subcutaneous, after 42 days", "value": "significantly reduced"}, {"measurement": "plasma aldosterone versus saline control", "setting": "2K1C rats; 2K1C rats, 0.03 mg/kg daily subcutaneous, day 42", "value": "significant lower"}, {"measurement": "heart weight to body weight ratio, drug versus saline", "setting": "2K1C rats; sham surgical procedure rats (no clip), 0.03 mg/kg daily, after 42 days", "value": "virtually identical"}, {"measurement": "heart weight/body weight (mg/g) ratio of corin knockout mice on PBS control relative to knockout mice on mimetic", "setting": "corin knockout mice; 0.01 mg/kg/min by osmotic pump", "value": "markedly higher"}, {"measurement": "left ventricular tissue cGMP versus PBS control", "setting": "corin knockout mice; [4]", "value": "higher"}, {"measurement": "relative protein kinase G serine/threonine kinase activity versus PBS control", "setting": "corin knockout mice; [4]", "value": "higher"}, {"measurement": "left ventricular tissue cGMP", "setting": "[2]", "value": "dose response"}, {"measurement": "relative protein kinase G serine/threonine kinase activity in left ventricular tissue", "setting": "[2]", "value": "dose response"}, {"measurement": "mean peak increase in plasma cGMP concentration", "setting": "[3]", "value": 1.7, "unit": "ng/mL"}]}
